In PubChem BioAssay AID760 (NMMLSC, 2007):
The whole screen tested about 190,000 compounds, of which about 360 (0.19%) were called active. Only results without a clear call are listed here; the source files them as inconclusive.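 The calls were made as follows: active = GTP binding activity at least 20 points away from 100%, either lowered or raised; inconclusive = signal likely due to the compound's own green fluorescence; inactive = the rest.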

target: Ras-related protein Rab-2A (Canis lupus familiaris) (UniProt P61105); test: modulators of GTP binding to Rab2A wildtype, primary screen, biochemical, dog, bead-based flow cytometry, multiplex (AID 760); details: GST-Rab2 wt beads, Bodipy-GTP binding, at 10 µM;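 also: 0% = beads with excess unlabeled GTP and 100% = no-compound control corrected for plate trend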

Compound	GTP binding activity
CCC(CO)(C(=O)OC1CN2CCC1CC2)c1ccccc1 (stereo unspecified)	inconclusive: 91%
